From the supplement of paper PMC11006884
The list shows a part of the results, in another mix than the full data.

Protein sequences, listed by entry. Tags and fused reporters are not part of them. Lines headed by an entry give the natural chain unless they say otherwise; changes in a name come on top.
UniProt P84103: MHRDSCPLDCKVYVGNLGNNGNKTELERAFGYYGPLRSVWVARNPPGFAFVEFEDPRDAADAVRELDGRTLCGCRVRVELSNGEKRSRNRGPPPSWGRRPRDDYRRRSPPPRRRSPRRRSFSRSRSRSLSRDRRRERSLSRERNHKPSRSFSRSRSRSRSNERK
UniProt Q01844: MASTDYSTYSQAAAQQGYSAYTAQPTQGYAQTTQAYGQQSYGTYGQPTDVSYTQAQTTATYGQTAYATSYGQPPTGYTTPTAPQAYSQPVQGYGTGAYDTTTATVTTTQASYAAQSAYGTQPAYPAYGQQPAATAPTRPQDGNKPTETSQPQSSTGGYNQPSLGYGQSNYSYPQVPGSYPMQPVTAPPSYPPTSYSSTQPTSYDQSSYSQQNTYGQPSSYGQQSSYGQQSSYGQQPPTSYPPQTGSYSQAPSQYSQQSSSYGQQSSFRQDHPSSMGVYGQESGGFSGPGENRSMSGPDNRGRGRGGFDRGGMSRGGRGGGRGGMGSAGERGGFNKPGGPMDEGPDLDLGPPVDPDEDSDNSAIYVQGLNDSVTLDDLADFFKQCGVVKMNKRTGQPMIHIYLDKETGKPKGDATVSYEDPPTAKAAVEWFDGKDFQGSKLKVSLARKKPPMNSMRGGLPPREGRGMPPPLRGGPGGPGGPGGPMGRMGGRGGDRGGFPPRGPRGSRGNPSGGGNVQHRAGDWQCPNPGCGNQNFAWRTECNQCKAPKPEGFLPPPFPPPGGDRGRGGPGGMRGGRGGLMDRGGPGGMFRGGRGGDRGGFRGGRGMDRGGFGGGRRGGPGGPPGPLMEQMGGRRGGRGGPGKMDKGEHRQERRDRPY
UniProt Q00341: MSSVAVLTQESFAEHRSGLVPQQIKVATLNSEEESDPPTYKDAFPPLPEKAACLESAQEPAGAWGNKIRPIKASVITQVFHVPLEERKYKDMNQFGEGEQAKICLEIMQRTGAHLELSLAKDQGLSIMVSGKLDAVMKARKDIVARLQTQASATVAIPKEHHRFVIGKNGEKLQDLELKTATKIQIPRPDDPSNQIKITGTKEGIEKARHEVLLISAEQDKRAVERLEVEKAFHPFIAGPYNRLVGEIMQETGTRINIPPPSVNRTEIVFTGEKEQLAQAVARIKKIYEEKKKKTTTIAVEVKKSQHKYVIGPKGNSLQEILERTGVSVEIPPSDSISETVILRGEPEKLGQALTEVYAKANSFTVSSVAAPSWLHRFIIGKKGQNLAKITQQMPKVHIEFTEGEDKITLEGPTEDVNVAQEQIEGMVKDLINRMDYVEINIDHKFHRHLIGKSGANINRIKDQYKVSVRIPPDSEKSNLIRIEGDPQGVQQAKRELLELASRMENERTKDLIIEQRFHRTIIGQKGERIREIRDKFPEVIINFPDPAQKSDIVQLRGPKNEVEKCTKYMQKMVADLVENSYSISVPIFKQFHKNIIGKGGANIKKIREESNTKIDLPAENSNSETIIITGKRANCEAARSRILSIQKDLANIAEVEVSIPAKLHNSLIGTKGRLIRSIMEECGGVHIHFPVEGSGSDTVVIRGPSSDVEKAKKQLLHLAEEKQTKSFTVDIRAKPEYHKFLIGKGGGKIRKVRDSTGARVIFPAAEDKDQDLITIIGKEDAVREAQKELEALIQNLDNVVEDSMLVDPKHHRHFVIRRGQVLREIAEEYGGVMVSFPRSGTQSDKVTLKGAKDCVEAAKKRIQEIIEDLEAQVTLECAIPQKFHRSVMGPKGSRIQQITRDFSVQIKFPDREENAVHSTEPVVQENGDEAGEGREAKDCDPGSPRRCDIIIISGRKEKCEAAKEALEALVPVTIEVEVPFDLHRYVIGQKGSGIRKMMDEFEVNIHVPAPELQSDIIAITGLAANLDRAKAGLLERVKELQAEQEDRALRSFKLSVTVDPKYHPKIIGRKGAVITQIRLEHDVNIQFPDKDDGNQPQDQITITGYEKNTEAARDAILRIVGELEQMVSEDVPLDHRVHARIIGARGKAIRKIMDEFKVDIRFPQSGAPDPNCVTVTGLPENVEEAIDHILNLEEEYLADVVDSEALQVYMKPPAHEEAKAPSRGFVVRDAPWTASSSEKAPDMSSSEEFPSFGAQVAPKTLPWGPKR
UniProt P67775, whole entry, looked up: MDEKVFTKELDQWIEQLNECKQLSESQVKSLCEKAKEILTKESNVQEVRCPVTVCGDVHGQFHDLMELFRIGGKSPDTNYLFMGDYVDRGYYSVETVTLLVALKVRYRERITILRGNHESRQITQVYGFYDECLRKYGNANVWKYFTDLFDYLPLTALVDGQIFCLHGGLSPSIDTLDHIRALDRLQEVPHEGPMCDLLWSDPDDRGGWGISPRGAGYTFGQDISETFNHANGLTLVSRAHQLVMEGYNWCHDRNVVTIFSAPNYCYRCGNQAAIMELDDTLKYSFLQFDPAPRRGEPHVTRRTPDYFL
UniProt P68104, whole entry, looked up: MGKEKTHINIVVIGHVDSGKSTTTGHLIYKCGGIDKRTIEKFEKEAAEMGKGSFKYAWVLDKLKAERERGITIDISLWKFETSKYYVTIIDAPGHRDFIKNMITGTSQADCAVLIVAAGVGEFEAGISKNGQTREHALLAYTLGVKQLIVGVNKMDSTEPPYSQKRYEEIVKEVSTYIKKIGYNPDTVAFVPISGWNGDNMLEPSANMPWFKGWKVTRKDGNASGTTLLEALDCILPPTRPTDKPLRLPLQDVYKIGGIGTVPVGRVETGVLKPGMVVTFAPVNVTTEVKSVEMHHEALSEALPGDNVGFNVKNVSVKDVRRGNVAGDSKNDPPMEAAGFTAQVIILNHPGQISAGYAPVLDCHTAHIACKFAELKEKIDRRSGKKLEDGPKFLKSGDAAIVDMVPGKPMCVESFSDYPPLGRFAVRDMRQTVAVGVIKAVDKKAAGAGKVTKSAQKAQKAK
UniProt Q00587: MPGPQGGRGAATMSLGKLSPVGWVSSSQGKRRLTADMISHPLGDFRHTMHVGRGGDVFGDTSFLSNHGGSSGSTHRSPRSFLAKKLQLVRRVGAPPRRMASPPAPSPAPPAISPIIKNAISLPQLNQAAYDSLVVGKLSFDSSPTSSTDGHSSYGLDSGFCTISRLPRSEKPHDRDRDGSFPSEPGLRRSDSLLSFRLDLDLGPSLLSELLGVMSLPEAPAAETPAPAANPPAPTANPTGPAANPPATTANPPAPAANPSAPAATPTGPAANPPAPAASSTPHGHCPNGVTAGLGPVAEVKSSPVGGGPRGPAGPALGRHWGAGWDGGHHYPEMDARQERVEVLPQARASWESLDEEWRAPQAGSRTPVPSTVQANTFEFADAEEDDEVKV
UniProt Q00839, whole entry, looked up: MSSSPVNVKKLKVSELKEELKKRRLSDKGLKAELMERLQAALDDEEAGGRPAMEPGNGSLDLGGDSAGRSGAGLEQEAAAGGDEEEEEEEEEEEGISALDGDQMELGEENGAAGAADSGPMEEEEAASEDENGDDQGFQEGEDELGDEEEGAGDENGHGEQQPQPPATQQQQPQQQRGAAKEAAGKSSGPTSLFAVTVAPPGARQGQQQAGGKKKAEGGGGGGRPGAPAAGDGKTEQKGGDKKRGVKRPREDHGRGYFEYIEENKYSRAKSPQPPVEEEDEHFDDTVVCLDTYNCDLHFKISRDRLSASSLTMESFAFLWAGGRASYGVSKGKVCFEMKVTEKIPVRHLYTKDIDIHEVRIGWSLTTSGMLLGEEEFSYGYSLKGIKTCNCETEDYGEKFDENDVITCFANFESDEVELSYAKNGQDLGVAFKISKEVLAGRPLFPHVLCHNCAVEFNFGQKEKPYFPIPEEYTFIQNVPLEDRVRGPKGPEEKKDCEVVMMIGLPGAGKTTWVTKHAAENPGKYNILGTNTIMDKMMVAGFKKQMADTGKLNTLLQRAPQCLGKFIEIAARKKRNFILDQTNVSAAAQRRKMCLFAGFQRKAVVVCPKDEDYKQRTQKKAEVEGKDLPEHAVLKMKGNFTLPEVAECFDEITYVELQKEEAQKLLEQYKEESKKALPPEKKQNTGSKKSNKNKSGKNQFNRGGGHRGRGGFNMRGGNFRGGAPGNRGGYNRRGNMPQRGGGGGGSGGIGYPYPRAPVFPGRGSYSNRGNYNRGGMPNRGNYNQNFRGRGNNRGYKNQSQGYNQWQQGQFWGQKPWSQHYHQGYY
UniProt Q02040: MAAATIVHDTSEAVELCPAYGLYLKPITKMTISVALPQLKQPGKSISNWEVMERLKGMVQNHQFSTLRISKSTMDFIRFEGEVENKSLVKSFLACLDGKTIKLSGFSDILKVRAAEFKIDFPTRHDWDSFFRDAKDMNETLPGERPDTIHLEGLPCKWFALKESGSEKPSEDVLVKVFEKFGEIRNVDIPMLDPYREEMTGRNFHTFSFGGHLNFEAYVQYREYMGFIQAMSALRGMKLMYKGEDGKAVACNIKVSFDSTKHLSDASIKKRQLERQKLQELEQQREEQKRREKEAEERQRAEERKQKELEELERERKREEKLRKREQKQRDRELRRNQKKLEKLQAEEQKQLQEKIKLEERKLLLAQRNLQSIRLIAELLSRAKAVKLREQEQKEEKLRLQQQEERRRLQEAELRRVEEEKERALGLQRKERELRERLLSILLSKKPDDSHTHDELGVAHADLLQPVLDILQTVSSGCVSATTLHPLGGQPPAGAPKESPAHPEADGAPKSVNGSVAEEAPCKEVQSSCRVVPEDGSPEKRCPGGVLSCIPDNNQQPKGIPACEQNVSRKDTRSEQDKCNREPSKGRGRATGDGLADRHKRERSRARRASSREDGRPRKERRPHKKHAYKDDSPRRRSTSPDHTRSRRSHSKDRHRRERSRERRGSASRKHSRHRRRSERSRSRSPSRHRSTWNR
UniProt P78347: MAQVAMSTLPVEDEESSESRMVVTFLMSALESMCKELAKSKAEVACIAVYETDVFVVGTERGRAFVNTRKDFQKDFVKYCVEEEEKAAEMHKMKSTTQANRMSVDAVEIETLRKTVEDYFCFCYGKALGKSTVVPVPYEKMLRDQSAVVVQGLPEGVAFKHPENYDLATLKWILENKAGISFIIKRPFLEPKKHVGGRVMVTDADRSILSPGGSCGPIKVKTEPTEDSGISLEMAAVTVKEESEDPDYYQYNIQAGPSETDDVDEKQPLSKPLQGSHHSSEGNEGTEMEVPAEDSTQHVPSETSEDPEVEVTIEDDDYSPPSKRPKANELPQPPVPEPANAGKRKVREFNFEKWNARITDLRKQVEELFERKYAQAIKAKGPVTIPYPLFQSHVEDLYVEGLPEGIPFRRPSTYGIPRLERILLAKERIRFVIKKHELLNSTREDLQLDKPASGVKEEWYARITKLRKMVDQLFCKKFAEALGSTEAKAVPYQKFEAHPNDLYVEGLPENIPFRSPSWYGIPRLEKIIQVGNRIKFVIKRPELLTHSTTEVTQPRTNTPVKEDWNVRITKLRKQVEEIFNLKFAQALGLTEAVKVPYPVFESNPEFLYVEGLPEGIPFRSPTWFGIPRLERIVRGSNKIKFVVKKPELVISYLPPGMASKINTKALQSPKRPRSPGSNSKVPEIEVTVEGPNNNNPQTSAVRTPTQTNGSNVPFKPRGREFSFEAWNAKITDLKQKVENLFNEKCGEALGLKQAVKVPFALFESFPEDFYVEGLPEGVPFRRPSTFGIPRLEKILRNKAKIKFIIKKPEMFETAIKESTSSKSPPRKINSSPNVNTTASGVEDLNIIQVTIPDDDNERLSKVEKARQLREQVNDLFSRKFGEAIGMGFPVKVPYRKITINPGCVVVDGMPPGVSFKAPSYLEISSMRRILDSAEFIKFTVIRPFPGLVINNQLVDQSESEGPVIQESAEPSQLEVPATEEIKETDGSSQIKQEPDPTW
UniProt Q01433: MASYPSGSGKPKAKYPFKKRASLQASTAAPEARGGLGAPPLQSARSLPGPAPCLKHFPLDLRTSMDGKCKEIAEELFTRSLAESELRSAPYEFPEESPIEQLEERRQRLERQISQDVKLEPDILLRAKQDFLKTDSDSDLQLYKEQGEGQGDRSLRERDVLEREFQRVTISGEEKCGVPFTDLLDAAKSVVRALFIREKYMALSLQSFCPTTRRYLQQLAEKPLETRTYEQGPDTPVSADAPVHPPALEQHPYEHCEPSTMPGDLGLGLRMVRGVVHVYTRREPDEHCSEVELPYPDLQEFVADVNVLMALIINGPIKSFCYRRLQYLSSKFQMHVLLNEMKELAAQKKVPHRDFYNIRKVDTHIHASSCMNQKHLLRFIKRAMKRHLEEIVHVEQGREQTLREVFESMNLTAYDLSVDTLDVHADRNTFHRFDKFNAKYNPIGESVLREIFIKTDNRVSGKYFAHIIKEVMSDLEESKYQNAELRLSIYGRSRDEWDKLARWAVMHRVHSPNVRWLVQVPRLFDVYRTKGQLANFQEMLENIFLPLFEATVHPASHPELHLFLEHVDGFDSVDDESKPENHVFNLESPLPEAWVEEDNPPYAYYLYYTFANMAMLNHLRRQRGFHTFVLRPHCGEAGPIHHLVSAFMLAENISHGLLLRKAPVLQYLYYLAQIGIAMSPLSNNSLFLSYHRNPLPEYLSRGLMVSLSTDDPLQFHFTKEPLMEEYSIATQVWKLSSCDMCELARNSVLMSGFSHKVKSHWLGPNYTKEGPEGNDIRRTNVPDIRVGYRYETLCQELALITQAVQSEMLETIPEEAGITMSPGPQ

Compound: COC(=O)C#Cc1ccccc1 [methyl 3-phenylpropiolate]
Assay: log2 ratio of iodoacetamide-alkyne labeling of the cysteine site, DMSO over compound (competition); higher = stronger covalent engagement of the cysteine by the compound, active = 1 or more
Settings: 500 µM; treatment time 1 h; system: HEK293T cell lysate
In short: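 HEK293T lysate (2 mg/mL) was treated with DMSO or electrophile (500 µM, 1 h, ambient temperature), then iodoacetamide alkyne (1 h), clicked to sCIP-TMT reagents, pooled, trypsin-digested overnight at 37 °C, streptavidin-enriched and acid-eluted. Peptides were run on Orbitrap Eclipse LC-MS/MS with FAIMS and quantified in FragPipe. The log2 competition ratio per cysteine is mean control-channel over mean compound-channel reporter intensity. Duplicate channels and three replicates were used, and cysteines quantified in only one replicate were excluded.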

Target	log2 ratio of iodoacetamide-alkyne labeling
UniProt P84103_C6	inactive: 0.422
UniProt P63241_C73	inactive: -0.149
EWSR1 C524 (UniProt Q01844)	inactive: -0.141
MRPS11 C186 (UniProt P82912)	inactive: 0.527
RPS27A C145 (UniProt P62979)	inactive: 0.532
UniProt Q00341_C878	inactive: 0.339
PPP2CA C20 (UniProt P67775)	inactive: 0.143
UniProt P62280_C131	inactive: 0.35
MRPS6 C105 (UniProt P82932)	inactive: 0.438
EXOSC10 C83 (UniProt Q01780)	inactive: 0.397
UniProt P78527_C223	inactive: 0.33
UniProt P84090_C28	inactive: -0.256
EEF1A1 C31 (UniProt P68104)	inactive: 0.126
CDC42EP1 C161 (UniProt Q00587)	inactive: 0.313
HNRNPU C450 (UniProt Q00839)	inactive: 0.018
UniProt Q02040_C549	active: 1.74
GTF2I C903 (UniProt P78347)	inactive: 0.16
HNRNPU C497 (UniProt Q00839)	inactive: 0.211
MRPS5 C377 (UniProt P82675)	inactive: 0.118
UniProt P62826_C120	inactive: -0.24
UniProt P62826_C112	inactive: -0.0254
UniProt P62753_C83	inactive: 0.548
AMPD2 C107 (UniProt Q01433)	inactive: 0.857

An excerpt of these results, field by field:
RPS27A C145 (UniProt P62979)
  log2 ratio of iodoacetamide-alkyne labeling: inactive: 0.532
UniProt Q00341_C878
  log2 ratio of iodoacetamide-alkyne labeling: inactive: 0.339
